Construct, isoform or probe ends are uncertain for at least one entry. For some assays here: Where cells or extracts were used, other partners may take part. For some assays here: Weaker means in comparison with the reference protein, sequence or condition of that experiment. For some assays here: At least one verdict rests on a figure or table, not on a statement of the authors.

By UniProt entry, the sequences of proteins in these tests, tags left out. Where a name states a change or a piece, a line headed by the entry shows the natural chain unless it says otherwise. Residues count along the entry.
UniProt Q03468, 444-509: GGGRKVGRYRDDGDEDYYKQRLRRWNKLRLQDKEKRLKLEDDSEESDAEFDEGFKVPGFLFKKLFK
UniProt Q03468, 307-509: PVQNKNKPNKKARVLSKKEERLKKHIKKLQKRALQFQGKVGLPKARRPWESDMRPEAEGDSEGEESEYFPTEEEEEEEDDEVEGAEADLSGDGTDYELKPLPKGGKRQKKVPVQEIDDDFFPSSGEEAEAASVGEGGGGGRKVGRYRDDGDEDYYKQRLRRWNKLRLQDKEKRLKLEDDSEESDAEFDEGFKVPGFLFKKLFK
UniProt Q03468, 307-444: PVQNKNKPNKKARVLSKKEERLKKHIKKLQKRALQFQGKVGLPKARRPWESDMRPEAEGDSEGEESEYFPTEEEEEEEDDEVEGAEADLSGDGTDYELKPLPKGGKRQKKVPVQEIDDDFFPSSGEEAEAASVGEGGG
UniProt P43351: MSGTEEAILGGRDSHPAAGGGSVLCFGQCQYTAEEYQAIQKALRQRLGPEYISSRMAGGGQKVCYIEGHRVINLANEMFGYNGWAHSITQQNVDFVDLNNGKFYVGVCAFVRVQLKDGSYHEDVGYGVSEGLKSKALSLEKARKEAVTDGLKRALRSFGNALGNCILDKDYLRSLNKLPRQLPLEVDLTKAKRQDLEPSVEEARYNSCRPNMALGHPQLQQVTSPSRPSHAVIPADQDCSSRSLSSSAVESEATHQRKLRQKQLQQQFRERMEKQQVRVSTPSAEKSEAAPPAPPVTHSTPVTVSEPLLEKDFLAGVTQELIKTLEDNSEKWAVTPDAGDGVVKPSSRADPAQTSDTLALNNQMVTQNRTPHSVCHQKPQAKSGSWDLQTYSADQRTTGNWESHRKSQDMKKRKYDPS

For data set [1], the target named is GST-CSB-ADC WT (Homo sapiens) (UniProt Q03468). As to the kind of experiment: EMSA. Conditions: EMSA (described for RAD52): 25 mM Tris-HCl pH 7.5, 1 mM MgCl2, 1 mM DTT, 50 ug/ml BSA, 50 mM NaCl, 15 min, 37 C, 6% PAGE-TBE at 4 C; recombinant protein; residues 444-509; protein details: GST; label: 5'-maleimide-IR800 on oligo 1 (DNA); DNA:RNA hybrid.
In a further data set the target is RAD52 WT (Homo sapiens) (UniProt P43351). The experiment in a line: EMSA. The note with it: 1 mM Mg2+; EMSA (described for RAD52): 25 mM Tris-HCl pH 7.5, 1 mM MgCl2, 1 mM DTT, 50 ug/ml BSA, 50 mM NaCl, 15 min, 37 C, 6% PAGE-TBE at 4 C; recombinant protein; protein details: C-terminal 6xHis; label: 5'-maleimide-IR800 on oligo 1 (DNA); DNA:RNA hybrid. (In general: Mobility shift assays separate free from complexed probe on a gel.)

In data set [2] the target is GFP-CSB-AD (acidic domain) (UniProt Q03468). As to the kind of experiment: pull-down. Conditions: lower than AD-C; pull-down: kit protein-RNA binding buffer, 15% glycerol, 30-60 min, 4 C; protein in a lysate after overexpression; residues 307-509; protein details: GFP (pEGFP-C1); DNA:RNA hybrid.
Another data set concerns the target GFP-CSB-ADC (AD-C) (UniProt Q03468). As to the kind of experiment: pull-down. Conditions: pull-down: kit protein-RNA binding buffer, 15% glycerol, 30-60 min, 4 C; protein in a lysate after overexpression; residues 444-509; protein details: GFP (pEGFP-C1); DNA:RNA hybrid.
A further data set has as its target GFP-CSB-ADN (AD-N) (UniProt Q03468). As to the kind of experiment: pull-down. The note with it: AD-C bound much more efficiently; pull-down: kit protein-RNA binding buffer, 15% glycerol, 30-60 min, 4 C; protein in a lysate after overexpression; residues 307-444; protein details: GFP (pEGFP-C1); DNA:RNA hybrid.

Take “ATCATCACCATAACGTCGATGTATCAACTTCGATTAGTCACACCAATTAA / UUAAUUGGUGUGACUAAUCGAAGUUGAUACAUCGACGUUAUGGUGAUGAU [RNA-DNA hybrid (oligo 1/oligo 2)]”: the binding result (in data set [1]; in the data set with RAD52 WT (Homo sapiens)) was “binds” throughout.

Consider “ATCATCACCATAACGTCGATGTATCAACTTCGATTAGTCACACCAATTAA / UUAAUUGGUGUGACUAAUCGAAGUUGAUACAUCGACGUUAUGGUGAUGAU [biotin-labeled DNA:RNA hybrid (pull-down)]”, for which the binding result in data set [2] was “binds”; with GFP-CSB-ADC (AD-C), “binds”; with GFP-CSB-ADN (AD-N), “binds more weakly”.
